This assay deals with human platelet-rich plasma (PRP). Put plainly: Inhibition of Convulxin-mediated platelet aggregation in vitro (PRP). It is filed as cell-based. As to conditions: Table 4, Convulxin-induced aggregation in human PRP, unit inferred. How it is done:
The ability for candidate molecules to inhibit syk-mediated platelet functions are tested by measuring the inhibition the GPVI-specific agonist Convulxin-induced human platelet calcium-mobilization or aggregation. Calcium-mobilization is assessed in human washed platelets in a 96-well microtiter format. Aggregation is assessed in a 96-well microtiter assay (see generally the procedures in Jantzen, H. M. et al. (1999) Thromb. Hemost. 81:111-117) or standard cuvette light transmittance aggregometry using human platelet-rich plasma (PRP).
Inhibition of Convulxin-Mediated Platelet Aggregation In Vitro […]
Inhibition of Convulxin-induced aggregation is determined in 96-well flat-bottom microtiter plates using a microtiter plate shaker and plate reader similar to the procedure described by Frantantoni et al., Am. […] The plates are then agitated for 5 min on a microtiter plate shaker and the 5 minute reading is obtained in the microtitre plate reader (Softmax, Molecular Devices, Menlo Park, Calif.). Aggregation is calculated from the decrease of OD at 650 nm at t=5 minutes. […]
Inhibition of Convulxin-induced aggregation was also determined for cuvette light transmittance aggregation assays, serial dilutions (1:2) of test compounds were prepared in 30% DMSO in a 96 well V-bottom plate (final DMSO concentration in the cuvette was 0.3%). […]

By IC50 is commonly meant the concentration that inhibits the measured activity by half. With `NCC1CCN(c2nc(Nc3ccc(S(N)(=O)=O)cc3)ncc2F)CC1` [Example 32, 4-(4-(4-(aminomethyl)piperidin-1-yl)-5-fluoropyrimidin-2-ylamino)benzenesulfonamide], it took 4.67 µM to reach half-maximal inhibition (IC50).

The record behind these values is patent US9139581B2 (PORTOLA PHARMACEUTICALS, INC., priority 2008, dated 2015).
